Taken from: PubChem BioAssay AID602196 (INSERM, 2012)

Purpose: 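Modifiers of cisplatin sensitivity in A549 cells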
Cells: human A549 lung cancer cells
Reagents: siRNA pair against human genes
Time to read-out: 48 h transfection before cisplatin; time from cisplatin to read-out not stated
Conditions: cisplatin at a dose killing half of control-siRNA cells; exact dose and duration not given
Read-out: 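Cisplatin cell death as a shift from the 50% death seen with control siRNA; siRNAs toxic or growth-blocking alone scored 0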
Scale: two-siRNA summed score (-2 to +2): higher = both siRNAs protect from cisplatin killing; -2 means both sensitise; mean protection from cisplatin (shift in death) and protection from cisplatin (shift in death), siRNA C and protection from cisplatin (shift in death), siRNA D: higher = protection from cisplatin killing
Rule for the call: 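siRNAs harmful alone (LDH or WST-1) get 0; others get +1 for less and -1 for more cisplatin killing; genes are active when the two siRNAs give the same sign, summing to ±2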
Meaning of the calls: active = both siRNAs shift cisplatin killing the same way; inactive = no consistent shift, or siRNA harmful alone
Shown is a random part of about 23,000 reagents tested. 455 of all reagents (2%) were called active. 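Active includes both protection and sensitisation; some change values fall well beyond the stated -50 to +50 range.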 Not stated in the record: the amount of reagent.

| Gene | two-siRNA summed score (-2 to +2) | mean protection from cisplatin (shift in death) (%) | protection from cisplatin (shift in death), siRNA C (%) | protection from cisplatin (shift in death), siRNA D (%) | Outcome |
| --- | --- | --- | --- | --- | --- |
| CCDC60 (GeneID 160777) | 0 | -4.2 | -9.4 | 1 | inactive |
| KRT8 (GeneID 3856) | -1 | -18.8 | -28.6 | -9 | inactive |
| MCCC1 (GeneID 56922) | 0 | 0.6 | -14.3 | 15.6 | inactive |
| SP140 (GeneID 11262) | 0 | -8.5 | -12 | -5 | inactive |
| RNF130 (GeneID 55819) | 0 | 13.8 | 24.7 | 2.8 | inactive |
| EPAS1 (GeneID 2034) | 1 | 12 | 16.9 | 7.2 | inactive |
| HRH1 (GeneID 3269) | 1 | 10.1 | -5.5 | 25.7 | inactive |
| CLNK (GeneID 116449) | -1 | -2.8 | 10.2 | -15.9 | inactive |
| CPSF4 (GeneID 10898) | 0 | -8.2 | -8.3 | -8.2 | inactive |
| LOC441504 | 0 | 8.8 | 7.2 | 10.4 | inactive |
| LOC401007 | 0 | 7.4 | 8 | 6.7 | inactive |
| LOC440983 | 1 | 25.6 | 27.7 | 23.4 | inactive |
| ABCC1 (GeneID 4363) | 0 | 6.1 | 12.4 | -0.2 | inactive |
| LOC389385 | 0 | 3.1 | 3.5 | 2.6 | inactive |
| ESRP1 (GeneID 54845) | 0 | 13.4 | 2.5 | 24.2 | inactive |
| NECAP1 (GeneID 25977) | 0 | -0.3 | 3.6 | -4.1 | inactive |
| CD48 (GeneID 962) | -1 | -9.5 | 2.2 | -21.2 | inactive |
| FZD2 (GeneID 2535) | -1 | -1.7 | -14.2 | 10.9 | inactive |
| ARHGAP20 (GeneID 57569) | 0 | -9 | -19.1 | 1 | inactive |
| ITGA5 (GeneID 3678) | 0 | 2 | -8.9 | 12.9 | inactive |
| CROT (GeneID 54677) | -1 | -8.2 | 4.3 | -20.8 | inactive |
| PLXNB3 (GeneID 5365) | -1 | -24.4 | -24.1 | -24.7 | inactive |
| WNT4 (GeneID 54361) | 0 | -3.7 | 0.2 | -7.7 | inactive |
| PDCL3P4 (GeneID 285359) | 1 | 6 | 18.4 | -6.4 | inactive |
| SLCO1A2 (GeneID 6579) | 0 | 3.5 | 4.5 | 2.5 | inactive |
| LOC401132 | 0 | 0.4 | -2.6 | 3.3 | inactive |
| STXBP5L (GeneID 9515) | 0 | 4.6 | 12.8 | -3.5 | inactive |
| LOC440482 | 0 | 0.9 | -1.4 | 3.2 | inactive |
| SNX19 (GeneID 399979) | 0 | 5.1 | -0.5 | 10.7 | inactive |
| TUSC3 (GeneID 7991) | 1 | 17.8 | 16.5 | 19.1 | inactive |
| LIG1 (GeneID 3978) | -1 | -23.7 | -27.2 | -20.3 | inactive |
| LUC7L (GeneID 55692) | 0 | -1.1 | -1.1 | -1.1 | inactive |
| TATDN1 (GeneID 83940) | 0 | -0.5 | 9.6 | -10.6 | inactive |
| CR1 (GeneID 1378) | 0 | 1.2 | -7.9 | 10.3 | inactive |
| ITPKB (GeneID 3707) | 2 | 15.7 | 13.1 | 18.3 | active |
| BCS1L (GeneID 617) | 0 | 9.8 | 8.7 | 10.8 | inactive |
| OLFM3 (GeneID 118427) | 0 | 12.4 | 10.8 | 14 | inactive |
| SFI1 (GeneID 9814) | 0 | 16.2 | 19.2 | 13.2 | inactive |
| IDH1 (GeneID 3417) | -1 | -8.7 | -17.7 | 0.3 | inactive |
| SUPT20HL1 (GeneID 100130302) | 0 | 8.8 | 8.8 | 8.8 | inactive |
| LOC440895 (GeneID 440895) | 0 | 3.4 | -2.4 | 9.3 | inactive |
| CFD (GeneID 1675) | 1 | 7 | 25.6 | -11.7 | inactive |
| SCARA3 (GeneID 51435) | 0 | -13.2 | 2.1 | -28.5 | inactive |
| OR4N4 (GeneID 283694) | -1 | -6.8 | -5.3 | -8.2 | inactive |
| ARPC5L (GeneID 81873) | 0 | -7.5 | -6.5 | -8.5 | inactive |
| LOC440782 | 0 | 7.8 | 1.7 | 13.8 | inactive |
| AREG (GeneID 374) | 1 | 20 | 33.6 | 6.5 | inactive |
| LOC401703 (GeneID 401703) | 0 | 1.3 | 7.2 | -4.6 | inactive |
| RPS14 (GeneID 6208) | 0 | 5.8 | -6.3 | 18 | inactive |
| LOC392179 | 0 | 15.5 | 12.9 | 18.2 | inactive |
| LOC285248 | 1 | 11.1 | 6.7 | 15.5 | inactive |
| LAMA5 (GeneID 3911) | 0 | 2.2 | 8.1 | -3.8 | inactive |
| DIO3 (GeneID 1735) | 0 | 14.4 | 17.3 | 11.4 | inactive |
| NTRK1 (GeneID 4914) | 1 | 17 | 10.1 | 23.9 | inactive |
| ATN1 (GeneID 1822) | 0 | -6.4 | -3.5 | -9.3 | inactive |
| LRRFIP1 (GeneID 9208) | 0 | -11.7 | -13.9 | -9.6 | inactive |
| OR52E8 (GeneID 390079) | 0 | 18.3 | 15.1 | 21.6 | inactive |
| GP6 (GeneID 51206) | 0 | -8.8 | -3.8 | -13.8 | inactive |
| CAMP (GeneID 820) | 1 | 7.5 | 19.7 | -4.8 | inactive |
| IL1RAP (GeneID 3556) | 0 | 15.3 | 16.7 | 13.9 | inactive |
| OR6A2 (GeneID 8590) | 0 | 1.6 | -10.8 | 14.1 | inactive |
| LOC402637 | 0 | 12.7 | 6.7 | 18.6 | inactive |
| CASZ1 (GeneID 54897) | 0 | 3.8 | -1.3 | 8.9 | inactive |
| TMEM200A (GeneID 114801) | 0 | -4 | -7.2 | -0.7 | inactive |
| RABEP2 (GeneID 79874) | 0 | -0.9 | 2.7 | -4.5 | inactive |
| LOC401445 (retired record) (GeneID 401445) | 0 | 0.1 | -5.7 | 5.9 | inactive |
| NIPAL3 (GeneID 57185) | 0 | 9.1 | 15.9 | 2.3 | inactive |
| CAPN13 (GeneID 92291) | 1 | 5.2 | 9 | 1.3 | inactive |
| PLEKHS1 (GeneID 79949) | 0 | 3 | -9.5 | 15.6 | inactive |
| DCST1 (GeneID 149095) | 0 | 20.6 | 40.9 | 0.2 | inactive |
| SARS2 (GeneID 54938) | 1 | 11.1 | 1.8 | 20.4 | inactive |
| LOC440141 | 0 | 8.5 | 12.5 | 4.5 | inactive |
| RNF170 (GeneID 81790) | 0 | 0.1 | 18.9 | -18.7 | inactive |

8 successive reagents already listed, for reference:
| Gene | two-siRNA summed score (-2 to +2) | mean protection from cisplatin (shift in death) (%) | protection from cisplatin (shift in death), siRNA C (%) | protection from cisplatin (shift in death), siRNA D (%) | Outcome |
| --- | --- | --- | --- | --- | --- |
| LOC392179 | 0 | 15.5 | 12.9 | 18.2 | inactive |
| LOC285248 | 1 | 11.1 | 6.7 | 15.5 | inactive |
| LAMA5 (GeneID 3911) | 0 | 2.2 | 8.1 | -3.8 | inactive |
| DIO3 (GeneID 1735) | 0 | 14.4 | 17.3 | 11.4 | inactive |
| NTRK1 (GeneID 4914) | 1 | 17 | 10.1 | 23.9 | inactive |
| ATN1 (GeneID 1822) | 0 | -6.4 | -3.5 | -9.3 | inactive |
| LRRFIP1 (GeneID 9208) | 0 | -11.7 | -13.9 | -9.6 | inactive |
| OR52E8 (GeneID 390079) | 0 | 18.3 | 15.1 | 21.6 | inactive |
